Measured values taken from publication PMC7733952.
No constants are given. Whether binding was seen depends on the method and setting. In cells and extracts the contact can be indirect. A yes stands for co-enrichment or nearness to the bait. Other partners may have been found.

T1: endogenous STING of RAW264.7 cells (mouse (endogenous in RAW264.7)) (UniProt Q3TBT3)
T1 sequence: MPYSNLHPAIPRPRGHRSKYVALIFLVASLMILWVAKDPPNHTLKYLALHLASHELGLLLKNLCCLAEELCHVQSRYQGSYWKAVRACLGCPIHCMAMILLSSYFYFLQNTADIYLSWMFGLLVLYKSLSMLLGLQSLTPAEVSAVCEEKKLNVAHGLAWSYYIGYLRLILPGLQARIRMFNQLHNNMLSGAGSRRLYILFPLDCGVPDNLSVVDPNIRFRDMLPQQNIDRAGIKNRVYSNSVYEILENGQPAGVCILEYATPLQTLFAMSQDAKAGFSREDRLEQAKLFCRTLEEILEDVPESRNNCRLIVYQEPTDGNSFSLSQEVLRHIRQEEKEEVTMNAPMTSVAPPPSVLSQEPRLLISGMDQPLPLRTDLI

B1: SFPQ (protein, UniProt Q8VIJ6 1-699)
chain: MSRDRFRSRGGGGGGFHRRGGGGGRGGLHDFRSPPPGMGLNQNRGPMGPGPGGPKPPLPPPPPHQQQQQPPPQQPPPQQPPPHQQPPPHQPPHQQPPPPPQESKPVVPQGPGSAPGVSSAPPPAVSAPPANPPTTGAPPGPGPTPTPPPAVPSTAPGPPPPSTPSSGVSTTPPQTGGPPPPPAGGAGPGPKPGPGPGGPKGGKMPGGPKPGGGPGMGAPGGHPKPPHRGGGEPRGGRQHHAPYHQQHHQGPPPGGPGPRTEEKISDSEGFKANLSLLRRPGEKTYTQRCRLFVGNLPADITEDEFKRLFAKYGEPGEVFINKGKGFGFIKLESRALAEIAKAELDDTPMRGRQLRVRFATHAAALSVRNLSPYVSNELLEEAFSQFGPIERAVVIVDDRGRSTGKGIVEFASKPAARKAFERCSEGVFLLTTTPRPVIVEPLEQLDDEDGLPEKLAQKNPMYQKERETPPRFAQHGTFEYEYSQRWKSLDEMEKQQREQVEKNMKDAKDKLESEMEDAYHEHQANLLRQDLMRRQEELRRMEELHSQEMQKRKEMQLRQEEERRRREEEMMIRQREMEEQMRRQREESYSRMGYMDPRERDMRMGGGGTMNMGDPYGSGGQKFPPLGGGGGIGYEANPGVPPATMSGSMMGSDMRTERFGQGGAGPVGGQGPRGMGPGTPAGYGRGREEYEGPNKKPRF
B2: M. tuberculosis MmsA (Rv0753c) from H37Rv in infected RAW264.7 cells (protein, UniProt O53816 1-510)
chain: MTTQISHFIDGQRTAGQSTRSADVFDPNTGQIQAKVPMAGKSDIDAAVASAVEAQKGWAAWNPQRRARVLMRFIELVNDTIDELAELLSREHGKTLADARGDVQRGIEVIEFCLGIPHLLKGEYTEGAGPGIDVYSLRQPLGVVAGITPFNFPAMIPLWKAGPALACGNAFVLKPSERDPSVPVRLAELFIEAGLPAGVFQVVHGDKEAVDAILHHPDIKAVGFVGSSDIAQYIYAGAAATGKRAQCFGGAKNHMIVMPDADLDQAVDALIGAGYGSAGERCMAISVAVPVGDQTAERLRARLIERINNLRVGHSLDPKADYGPLVTGAALARVRDYIGQGVAAGAELVVDGRDRASDDLTFGLPEGDANLEGGFFIGPTLFDHVAAHMSIYTDEIFGPVLCMVRARDYEEALRLPSEHEYGNGVAIFTRDGDAARDFVSRVQVGMVGVNVPIPVPVAYHTFGGWKRSGFGDLNQHGPAAIQFYTKVKTVTSRWPSGIKDGAEFVIPTMS

Target: T1, endogenous STING of RAW264.7 cells (mouse (endogenous in RAW264.7))
Experiment: affinity purification with mass spectrometry

| Binder | binding |
| --- | --- |
| B1 | binds |
| B2 | binds |
